From the supplement of paper PMC12823440, “Inhibitors supercharge kinase turnover through native proteolytic circuits” (Nature, 2025)
Structures can show the parent of a compound that is named as a salt. Some of the results follow. Hit calls seldom repeat between salt and free forms of one compound.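 Kinases, fused to nanoluciferase, were expressed in K562 cells; luminescence was measured every 4 h from 2 to 18 h as percent of control (DMSO = 100%, positive control = 0%). A time point is decreased if signal falls significantly (2 sigma). Hits were called by the authors by a rule that is not shown; the count of time points alone does not decide it.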

The chains behind the UniProt entries cited, without tags or fusion partners. Where a name states a change or a piece, a line headed by the entry shows the natural chain unless it says otherwise.
UniProt P07947, whole entry, looked up: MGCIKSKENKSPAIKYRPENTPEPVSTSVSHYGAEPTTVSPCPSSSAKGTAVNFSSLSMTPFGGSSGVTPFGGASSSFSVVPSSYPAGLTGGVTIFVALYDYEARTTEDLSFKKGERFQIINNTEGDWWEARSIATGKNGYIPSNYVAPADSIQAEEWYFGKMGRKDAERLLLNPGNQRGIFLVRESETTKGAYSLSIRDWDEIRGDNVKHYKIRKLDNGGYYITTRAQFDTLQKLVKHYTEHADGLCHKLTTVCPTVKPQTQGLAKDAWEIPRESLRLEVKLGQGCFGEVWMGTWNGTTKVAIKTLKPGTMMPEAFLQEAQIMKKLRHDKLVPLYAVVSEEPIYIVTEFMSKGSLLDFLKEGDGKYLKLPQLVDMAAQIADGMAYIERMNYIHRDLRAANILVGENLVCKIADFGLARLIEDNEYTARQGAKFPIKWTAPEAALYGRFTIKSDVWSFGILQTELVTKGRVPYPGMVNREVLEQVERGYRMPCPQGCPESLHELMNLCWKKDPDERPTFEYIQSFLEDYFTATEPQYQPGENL
UniProt P43403: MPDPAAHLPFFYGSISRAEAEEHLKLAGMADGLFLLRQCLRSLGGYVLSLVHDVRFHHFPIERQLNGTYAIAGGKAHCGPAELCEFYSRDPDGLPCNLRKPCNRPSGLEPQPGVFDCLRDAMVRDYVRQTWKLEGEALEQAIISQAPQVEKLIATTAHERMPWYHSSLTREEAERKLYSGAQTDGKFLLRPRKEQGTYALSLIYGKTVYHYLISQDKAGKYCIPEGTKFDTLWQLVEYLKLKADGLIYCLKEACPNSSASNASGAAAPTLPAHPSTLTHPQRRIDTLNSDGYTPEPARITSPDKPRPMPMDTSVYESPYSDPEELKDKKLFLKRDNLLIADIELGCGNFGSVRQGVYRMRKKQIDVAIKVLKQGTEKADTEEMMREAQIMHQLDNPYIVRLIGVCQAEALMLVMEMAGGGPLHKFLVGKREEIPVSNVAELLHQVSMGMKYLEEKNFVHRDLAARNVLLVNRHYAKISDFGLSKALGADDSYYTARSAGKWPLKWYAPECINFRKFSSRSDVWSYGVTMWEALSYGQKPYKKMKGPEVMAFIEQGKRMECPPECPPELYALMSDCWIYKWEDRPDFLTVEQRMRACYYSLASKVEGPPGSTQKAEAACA
UniProt P11802: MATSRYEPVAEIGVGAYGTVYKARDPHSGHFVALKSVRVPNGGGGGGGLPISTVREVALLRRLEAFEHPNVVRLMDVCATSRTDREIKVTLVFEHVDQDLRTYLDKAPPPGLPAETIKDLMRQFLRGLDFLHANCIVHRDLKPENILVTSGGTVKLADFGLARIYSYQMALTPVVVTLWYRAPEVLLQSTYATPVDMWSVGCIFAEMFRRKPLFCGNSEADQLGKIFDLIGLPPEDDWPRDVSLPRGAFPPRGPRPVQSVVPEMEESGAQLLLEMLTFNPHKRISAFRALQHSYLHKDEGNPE
UniProt P50613: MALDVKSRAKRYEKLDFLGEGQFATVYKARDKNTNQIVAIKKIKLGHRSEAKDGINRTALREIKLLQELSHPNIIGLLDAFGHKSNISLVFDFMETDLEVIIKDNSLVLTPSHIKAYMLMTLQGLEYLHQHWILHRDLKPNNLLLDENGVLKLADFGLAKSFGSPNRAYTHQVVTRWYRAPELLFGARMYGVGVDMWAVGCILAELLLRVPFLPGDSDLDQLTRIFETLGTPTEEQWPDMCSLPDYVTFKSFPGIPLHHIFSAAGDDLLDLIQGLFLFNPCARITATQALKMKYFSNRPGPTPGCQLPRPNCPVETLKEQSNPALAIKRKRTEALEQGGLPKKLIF
UniProt P50750, whole entry: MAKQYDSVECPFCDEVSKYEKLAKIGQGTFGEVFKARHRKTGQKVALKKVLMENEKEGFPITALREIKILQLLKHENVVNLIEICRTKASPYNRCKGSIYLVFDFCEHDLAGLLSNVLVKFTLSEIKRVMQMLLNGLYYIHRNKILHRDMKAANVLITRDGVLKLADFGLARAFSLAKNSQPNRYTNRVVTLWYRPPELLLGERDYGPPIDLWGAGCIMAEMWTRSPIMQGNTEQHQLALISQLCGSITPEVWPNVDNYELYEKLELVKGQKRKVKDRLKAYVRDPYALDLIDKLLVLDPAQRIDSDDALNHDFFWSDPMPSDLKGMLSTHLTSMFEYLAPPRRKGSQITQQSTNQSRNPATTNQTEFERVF

What was measured:
Conditions in all cases: K562; 2-18 h
[1] = target: YES1 (UniProt P07947); experiment: number of time points (of 5) at which kinase-Nluc abundance scored as decreased, DMSO-normalised (count); higher = more persistent destabilization
[2] = target: ZAK (UniProt Q9NYL2); experiment: as above
[3] = target: ZAP70 (UniProt P43403); experiment: as above
[4] = target: CDK4 (UniProt P11802); experiment: number of time points (of 4; 2 h point missing) at which kinase-Nluc abundance scored as decreased, DMSO-normalised (count); higher = more persistent destabilization
[5] = target: CDK7 (UniProt P50613); experiment: as above
[6] = target: CDK9 (UniProt P50750); experiment: as above

Row | SMILES | number of time points [1] | number of time points [2] | number of time points [3] | number of time points [4] | number of time points [5] | number of time points [6]
1 | CC(C)(C)c1cc(NC(=O)Nc2ccc(-c3cn4c(n3)sc3cc(OCCN5CCOCC5)ccc34)cc2)no1 [Quizartinib] (10 µM) | 0 | 0 | 0 | 0 | 0 | 0
2 | CN(C)CCOc1ccc(-c2nc(-c3ccncc3)c(-c3ccc4c(c3)CC/C4=N\O)[nH]2)cc1 (10 µM) | 0 | 0 | 0 | 0 | 0 | 0
3 | CC(C)(C)n1nc(Cc2cccc3ccccc23)c2c(N)ncnc21 (10 µM) | 0 | 0 | 0 | 0 | 0 | 0
4 | Cc1cc(F)c(C(=O)Nc2cccc(-c3nncn3C(C)C)n2)cc1-n1cnc(C2CC2)c1 [Selonsertib] (10 µM) | 0 | 0 | 0 | 0 | 0 | 0
5 | CN(C)C[C@@H]1CCn2cc(c3ccccc32)C2=C(C(=O)NC2=O)c2cn(c3ccccc23)CCO1 [Ruboxistaurin (hydrochloride)] (10 µM) | 0 | 0 | 0 | – | 0 | 0
6 | CC(C)C(=O)Nc1ncc(-c2cc(C(F)F)nn2-c2c(Cl)cccc2Cl)s1 (10 µM) | 0 | 0 | 0 | 3 | 4 | 0
7 | COc1cc(C=C(C#N)C(N)=O)cc(CSc2nc3ccccc3s2)c1O (10 µM) | 0 | 0 | 0 | 0 | 0 | 0
8 | Cc1c[nH]c2nccc(Oc3c(F)cc(Nc4cc(Cl)nc(N)n4)cc3F)c12 (10 µM) | 2 | – | 0 | 0 | 1 | 0
9 | Cc1cccc(Cn2nc(C3CC3)c3c(NC(=O)c4cnc5cc(OCCN6CCN(C)CC6)ccn45)cccc32)n1 (10 µM) | 0 | 0 | 0 | 0 | 0 | 0
10 | O=c1oc2ccccc2c(O)c1Cc1c(O)c2ccccc2oc1=O [Dicoumarol] (10 µM) | 0 | 0 | 0 | 0 | 0 | 0
11 | CCN(CC)CCCCNc1ncc2cc(-c3cc(OC)cc(OC)c3)c(NC(=O)NC(C)(C)C)nc2n1 (10 µM) | 0 | 0 | 0 | 0 | 0 | 0
12 | CN(c1ncccc1CNc1nc(Nc2ccc3c(c2)CC(=O)N3)ncc1C(F)(F)F)S(C)(=O)=O (2.5 µM) | 0 | – | 0 | 0 | 0 | 0
13 | COc1cc2c(Nc3ccc(NC(=O)c4ccccc4)cc3)ncnc2cc1OCCCN1CCOCC1 (10 µM) | 0 | 0 | 0 | 0 | 1 | 0
14 | C=CC(=O)N[C@H]1COC[C@H]1Nc1ncc2cc(-c3c(Cl)c(OC)cc(OC)c3Cl)c(=O)n(C)c2n1 (10 µM) | 0 | 0 | 0 | 0 | 0 | 0
15 | O=C(c1ccc(-c2ccc(Cl)cc2)o1)N(Cc1ccccn1)c1ccc(N2CCNCC2)cc1 [MK2-IN-1 (hydrochloride)] (10 µM) | – | 0 | 0 | 0 | 1 | 0
16 | O=S(=O)(NCCNC/C=C/c1ccc(Br)cc1)c1cccc2cnccc12 [H-89 (dihydrochloride)] (10 µM) | 0 | 0 | 0 | 0 | 0 | 0
17 | COc1cc(Nc2ncc3c(n2)-c2ccc(Cl)cc2C(c2c(F)cccc2OC)=NC3)ccc1C(=O)O [Alisertib] (2.5 µM) | 0 | – | 0 | 0 | 0 | 0
18 | Cc1ccc(NC(=O)Nc2nnc(Sc3ncnc4cc(OCCCN5CCOCC5)ccc34)s2)cc1 (10 µM) | 0 | 0 | 0 | 0 | 0 | 0
19 | CCN(CC)CCCCNc1ncc2cc(-c3c(Cl)cccc3Cl)c(NC(=O)NC(C)(C)C)nc2n1 (2.5 µM) | 0 | 0 | 0 | 1 | 3 | 2
20 | CN1CCN(S(=O)(=O)c2ccc(-c3cnc(N)c(C(=O)Nc4cccnc4)n3)cc2)CC1 (10 µM) | 0 | 0 | 0 | 0 | 0 | 0

Row | SMILES | number of time points [1] | number of time points [2] | number of time points [3] | number of time points [4] | number of time points [5] | number of time points [6]
21 | Cc1cc(C(=O)Nc2cccc(C(=O)Nc3cccc(C(F)(F)F)c3)c2)on1 (10 µM) | 0 | 0 | 0 | 0 | 0 | 0
22 | Cc1cc(C)c(/C=C2\C(=O)Nc3ccccc32)[nH]1 [Semaxinib] (10 µM) | 0 | – | 0 | 0 | 0 | 0
23 | O=c1oc2c(C3OCCCO3)c(O)ccc2c2c1CNCC2 (10 µM) | 0 | 0 | 0 | 0 | 0 | 0
24 | COc1cc2ncnc(Nc3cccc(Cl)c3F)c2cc1OC(=O)N1CCN(C)C[C@H]1C [Zorifertinib] (10 µM) | 0 | 0 | 0 | 0 | 0 | 0
25 | Cc1cc(CS(=O)(=O)c2ccccc2)cc(OCc2ccc(CN3CCC[C@@H]3CO)cc2)c1 [PF-543 (Citrate)] (10 µM) | 0 | 0 | 0 | 0 | 0 | 0
26 | NS(=O)(=O)c1ccc(Nc2nc(OCC3CCCCC3)c3[nH]cnc3n2)cc1 (10 µM) | 0 | 0 | 0 | 0 | 0 | 0
27 | CCCS(=O)(=O)Nc1ccc(F)c(C(=O)c2c[nH]c3ncc(Cl)cc23)c1F (10 µM) | 0 | 0 | 0 | 0 | 0 | 0
28 | COCCOc1cc2nccc(Nc3n[nH]c(C)c3C)c2cc1S(=O)(=O)C(C)(C)C [RIP2 kinase inhibitor 2] (2.5 µM) | 0 | 0 | 0 | 0 | 0 | 0
29 | COc1ccc2c(NC(=O)Nc3cccc(C(F)(F)F)n3)ccnc2c1 (10 µM) | 0 | – | 0 | 0 | 0 | 0
30 | Cc1ccc(NC(=O)c2cccc(N(C)C)c2)cc1NC(=O)c1ccc(O)cc1 (10 µM) | 0 | 0 | 0 | 0 | 0 | 0
31 | CNc1nc(-c2ccc3c(N)n[nH]c3c2)cc(N2C[C@@H](C(=O)NC3CCCCC3)CC[C@H]2C)n1 (10 µM) | 0 | 0 | 0 | 0 | 0 | 0
32 | O=C1Nc2ccccc2/C1=C/c1ccc(F)cc1 (10 µM) | 0 | 0 | 0 | 0 | 0 | 0
33 | O=c1c(O)c(-c2ccc(O)c(O)c2)oc2cc(O)cc(O)c12 [Quercetin (dihydrate)] (10 µM) | 0 | 0 | 0 | 0 | 0 | 0
34 | O=c1cc(-c2ccccc2)oc2c(O)c(O)ccc12 [7,8-Dihydroxyflavone] (10 µM) | 0 | 0 | 0 | 0 | 0 | 0
35 | Cc1nc(N)sc1-c1ccnc(Nc2ccc(N3CCOCC3)cc2)n1 (10 µM) | 0 | – | 0 | 0 | 4 | 0
36 | C=CC(=O)N1CC[C@H](n2nc(C#Cc3cc(OC)cc(OC)c3)c3c(N)ncnc32)C1 [Futibatinib] (10 µM) | 0 | 0 | 0 | 0 | 0 | 0
37 | CC(C)Oc1cc(Nc2nc(N[C@@H](C)c3ccc(F)cn3)ncc2Cl)n[nH]1 (10 µM) | 0 | 0 | 0 | 0 | 0 | 0
38 | COc1cc(C(=O)NC2CCN(C)CC2)c(F)cc1Nc1ncc2c(n1)N(C1CCCC1)CC(F)(F)C(=O)N2C [TAK-960 (dihydrochloride)] (2.5 µM) | 0 | 0 | 0 | 0 | 0 | 0
39 | Cc1c(Cn2c(C)nc3c(C(=O)O)cc(N4CCOCC4)cc32)cccc1C(F)(F)F (10 µM) | 0 | – | – | 0 | 0 | 0

Structures shown so far containing an aryl thioether with sulfur outside any ring:
Row | SMILES | number of time points [1] | number of time points [2] | number of time points [3] | number of time points [4] | number of time points [5] | number of time points [6]
7 | COc1cc(C=C(C#N)C(N)=O)cc(CSc2nc3ccccc3s2)c1O (10 µM) | 0 | 0 | 0 | 0 | 0 | 0
18 | Cc1ccc(NC(=O)Nc2nnc(Sc3ncnc4cc(OCCCN5CCOCC5)ccc34)s2)cc1 (10 µM) | 0 | 0 | 0 | 0 | 0 | 0
